From paper PMC5778812
Results are given in words; binding and its absence hold for the method and conditions named. In cells and extracts the contact can be indirect. Some results given as binding are weak or reduced against the parent protein; the word gives no strength. Tags and fused reporters may be left off the sequences shown.

Amino acid sequences for entries named in this document (tags omitted).
UniProt P61006: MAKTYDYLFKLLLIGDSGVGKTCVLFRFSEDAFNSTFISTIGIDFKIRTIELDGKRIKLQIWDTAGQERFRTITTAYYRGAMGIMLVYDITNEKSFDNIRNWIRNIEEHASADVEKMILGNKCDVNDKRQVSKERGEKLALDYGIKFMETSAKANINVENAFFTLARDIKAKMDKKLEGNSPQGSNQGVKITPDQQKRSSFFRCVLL

Target: T1, GFP-Rabin8 (human) (UniProt Q96QF0)
T1 sequence: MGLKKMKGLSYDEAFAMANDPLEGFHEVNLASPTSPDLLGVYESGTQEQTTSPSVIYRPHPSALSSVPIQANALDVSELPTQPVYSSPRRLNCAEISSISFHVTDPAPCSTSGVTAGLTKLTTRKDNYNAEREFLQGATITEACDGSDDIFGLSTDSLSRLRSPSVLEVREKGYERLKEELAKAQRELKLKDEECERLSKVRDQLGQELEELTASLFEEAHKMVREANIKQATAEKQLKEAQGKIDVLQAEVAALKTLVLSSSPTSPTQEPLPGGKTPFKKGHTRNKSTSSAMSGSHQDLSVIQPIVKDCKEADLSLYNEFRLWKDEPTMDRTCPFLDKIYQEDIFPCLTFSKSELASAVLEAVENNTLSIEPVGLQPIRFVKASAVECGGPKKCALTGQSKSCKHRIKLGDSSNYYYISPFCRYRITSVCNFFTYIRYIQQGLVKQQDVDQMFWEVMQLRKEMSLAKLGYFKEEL
Experiment: co-IP; HEK293T co-transfected with GFP-Rabin8 and flag-tagged Rab8a constructs; lysis in 50 mM Tris-HCl pH 7.6, 150 mM NaCl, 2 mM MgCl2, 1% Triton-X100, 1 mM DTT; 1 mg lysate immunoprecipitated with anti-GFP and protein G Sepharose at 4 °C; Western blot with anti-flag

binding: binds
Substance: 3xFlag-Rab8a wildtype (from UniProt P61006 1-207)
